From patent US9921475B1, “Photoacid-generating compound, polymer derived therefrom, photoresist composition including the photoacid-generating compound or polymer, and method of forming a photoresist relief image” (Rohm and Haas Electronic Materials LLC, priority 2016, dated 2018)

Test: Acid diffusion length evaluation (bilayer acid source / acid detector layer, 193 nm exposure)
Type: physicochemical
Conditions: for DL (nm) at PEB 100° C.: post-exposure bake 100° C. for 60 seconds; for DL (nm) at PEB 110° C.: post-exposure bake 110° C. for 60 seconds

## O=C(OCC(F)(F)S(=O)(=O)O)C12CC3CC(CC(C3)C1)C2 [Comparative PAG 1]
  DL (nm) at PEB 100° C.: 10.9 nm
  DL (nm) at PEB 110° C.: 37.4 nm

## O=C(OCC(F)(F)S(=O)(=O)O)C12CC3CC(CC(O)(C3)C1)C2 [Comparative PAG 2]
  DL (nm) at PEB 100° C.: 8.1 nm
  DL (nm) at PEB 110° C.: 21.9 nm

## O=C(OCC12CC3CC(CC(O)(C3)C1)C2)C(F)(F)S(=O)(=O)O [Comparative PAG 3]
  DL (nm) at PEB 100° C.: 5.1 nm
  DL (nm) at PEB 110° C.: 19.4 nm
